A short description of the experiment: qHTS Assay to Find Inhibitors of Chronic Active B-Cell Receptor Signaling. The conditions noted are these: ABC-DLBCL IkBa-CBG/CBR reporter, luminescence ratio (green luciferase fused to IkBa over red control in TMD8 lymphoma cells), 4 h. The method, boiled down:
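Cell line TMD8 (human ABC DLBCL), stably expressing tet-inducible CBG68-IkBa fusion and CBR; IMDM/0.5% FBS; cpd up to 46 uM; dox induction, 4 h, 37C/5% CO2; dual luminescence; green/red ratio; MG132 control.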
On the technique in general: In qHTS, concentration-response curves come from the screen itself.

Setting [1] is: measured here: CBR red luminescence, cell number.
[2] abbreviates: measured here: IkBa-CBG green luminescence.

The AC50 is the midpoint of the concentration-response curve, whichever way the signal moves.

Some of the results follow. Further columns of the screen follow, without active or inactive calls. The list favours compounds with an active or inconclusive main result. Potencies come from curve fits of mixed quality, noted in brackets.

As for `O=C(COC(=O)/C=C/c1ccccc1Cl)Nc1cccnc1Cl`, the AC50 under setting [1] was 0.92 µM [rising, full curve].
Same read-out and setting: the result for `O=C(CN(Cc1ccccc1Cl)S(=O)(=O)c1ccc(Cl)cc1)N/N=C/c1ccc(C(=O)O)cc1` reads 6.31 µM [falling, partial curve]; that for `COc1ccc(C(=O)NC(C)CCc2ccccc2)cc1[N+](=O)[O-]` (stereo unspecified), 12.6 µM [rising, partial curve, poor fit].
As to `CCOc1ccc(CN2CCN(Cc3cn(CC)nc3C)CC2CCO)cc1` (stereo unspecified), under setting [1], the AC50 is 5.62 µM [rising, single point].
Same read-out and setting: the result for `CCN1CCCC1CNCc1cc(OC)c(OC)c(OC)c1` (stereo unspecified) reads 6.51 µM [falling, single point]; that for `COc1ccc(C2=NN(C(C#N)c3ccc(OC)cc3)C(c3ccccc3)C2)cc1` (stereo unspecified), 0.411 µM [rising, full curve, poor fit].
Take `CC1CCCC(C)N1C(=O)c1cccc2c1-c1ccccc1/C2=N/O` (stereo unspecified): the AC50 under setting [1] was 7.31 µM [falling, partial curve, poor fit].
As to `CN(Cc1ccccc1)C1=CC(=[N+]2CCCCC2)CC(C)(C)C1`, under setting [1], the concentration at half-maximal activity (AC50) was 10 µM [falling, partial curve].
Take `COc1ccc(-c2cc(C(=O)N3CCN(c4ccccc4)CC3)c3ccccc3n2)cc1OC`: the AC50 under setting [1] was 29.1 µM [falling, single point].
Still for that read-out and setting: next, `O=C(NCc1cccc(Cl)c1)c1ccco1`: 6.51 µM [rising, single point].
In the case of `CC(C)(C)C(=O)NC(=S)NNC(=O)c1ccc(-c2ccccc2)cc1`, the AC50 is 11.2 µM [rising, partial curve, poor fit] under setting [1] and 10 µM [falling, partial curve] under setting [2].
For the compound `N#CC1=C(N)N2C(=C(C#N)C1c1cccc(Br)c1)Nc1ccccc12` (stereo unspecified), the AC50 under setting [1] was 5.8 µM [falling, full curve, poor fit].
On the same count and under the same terms, the result for `COc1ccccc1C1=NNC(=NCc2ccccc2)SC1` reads 0.112 µM [falling, full curve, poor fit]; that for `COC(=O)C1=C(C)NC(=S)NC1c1ccc(OCC(=O)N2CC(C)OC(C)C2)c(OC)c1` (stereo unspecified), 9.2 µM [rising, partial curve, poor fit].
For `Cc1cc(C)c(C#N)c(OCC(=O)c2ccc(Br)cc2)n1`, under setting [1], the half-maximal activity concentration (AC50) was 2.51 µM [rising, full curve, poor fit].
Regarding `O=C(N1CCN(c2ccccn2)CC1)C(Cl)(Cl)Cl`, the AC50 under setting [1] was 1.64 µM [rising, partial curve].
`O=C(O)c1cccc(Cn2c(Cl)c(/C=N/NC(=O)c3ccc(O)cc3)sc2=O)c1`: under setting [1], the AC50 is 7.08 µM [falling, partial curve].
Turning to `O=C(Cc1ccc(Cl)cc1)Nc1ccc(C(=O)N2CCCCC2)cc1`, the AC50 under setting [1] was 12.6 µM [falling, partial curve].
On to `CN(C)c1ccc(/C=N\NC(=O)c2csnn2)cc1`, for which the AC50 under setting [1] was 7.08 µM [falling, full curve].
As for `c1ccc(CCNCC2COc3ccccc3O2)cc1` (stereo unspecified), under setting [1], the AC50 is 5.62 µM [rising, single point].
Turning to `Cc1ccc(/C=N/Nc2nc(Cl)c(Cl)cc2Cl)s1`, under setting [1], the AC50 is 2.24 µM [rising, partial curve, poor fit].
Same read-out and setting: the result for `O=C(CCC(=O)OCC(=O)c1ccc([N+](=O)[O-])cc1)NC1CCCCC1` reads 23.1 µM [falling, single point]; that for `C/C(CC(=O)Nc1ccc(N(C)C)cc1)=N\NC(=O)c1ccccn1`, 25.1 µM [falling, partial curve].
Take `O=C(CCN1C(=O)/C(=C/c2cccs2)SC1=S)Nc1ccc(O)cc1`: under setting [1], the AC50 is 0.316 µM [falling, full curve, poor fit].
Consider `COc1cc(OC)cc(C(=O)NCCSc2c[nH]c3ccccc23)c1`, for which, under setting [1], the half-maximal activity concentration (AC50) was 11.2 µM [falling, partial curve, poor fit].
`CSc1ccc(/C=N/NC(=O)COc2ccc(Br)cc2Cl)cc1`: the AC50 under setting [1] is 20.6 µM [rising, single point].
As for `O=C1CCC(=O)N1c1ccccc1-c1ccccc1`, under setting [1], the AC50 was 10 µM [falling, partial curve].
As to `O=C(O)/C=C/c1ccc(-c2cccc(C(F)(F)F)c2)o1`, the half-maximal activity concentration (AC50) under setting [1] was 7.94 µM [falling, partial curve, poor fit].
On to `COc1cc2c(cc1NC(=O)CSc1nnc(Cc3cccs3)n1C)oc1ccccc12`, for which the AC50 under setting [2] is 20.6 µM [rising, partial curve, poor fit].
With `O=c1c(Cl)c(NC2CC2)cnn1-c1ccccc1`, the AC50 under setting [1] is 3.16 µM [rising, single point].
On the same count and under the same terms, the result for `O=C(Cn1cnc2c(oc3ccccc32)c1=O)c1ccccc1` reads 2.51 µM [rising, partial curve, poor fit]; that for `COc1ccccc1-c1nnc(SCC(=O)NC2CCS(=O)(=O)C2)n1CCc1ccccc1` (stereo unspecified), 2.59 µM [rising, partial curve].
The same measure, in the same setting: next, `O=Cc1c(Sc2ccccc2)nc2ccccn2c1=O`: 13 µM [falling, partial curve]; `N#Cc1c(N2CCCCC2)nc(N)c2c(N)nc3c(c12)CC(CCl)O3` (stereo unspecified): 0.251 µM [falling, full curve, poor fit].
With `COc1ccc(-n2c(=S)[nH]c3c(oc4ccccc43)c2=O)cc1`, the AC50 under setting [1] is 16.4 µM [falling, single point].
On the same count and under the same terms, the result for `Cc1ccc(O)c(/C=N/NC(=O)c2[nH]ncc2Br)c1` reads 2.91 µM [falling, partial curve].
For the compound `O=C(Nc1cccc(Cl)c1Cl)c1ccc(-c2ccccc2)cc1`, under setting [1], the AC50 is 4.47 µM [falling, full curve, poor fit].
The same measure, in the same setting: the result for `Cc1ccccc1C(=O)NC(C(N)=O)P(=O)(OC(C)C)OC(C)C` (stereo unspecified) reads 0.1 µM [rising, full curve, poor fit]; that for `O=C(Nc1nnc(-c2ccccc2Cl)o1)c1ccco1`, 10.3 µM [falling, partial curve, poor fit].
Still for that read-out and setting: next, `Cc1cc(C)cc(C(=O)NCCCc2ccccc2)c1`: 3.55 µM [rising, partial curve, poor fit]; `COC(=O)c1cc2oc(C)cc2n1CC(=O)N(C)c1ccccc1`: 16.4 µM [rising, partial curve]; `CN(c1ccccc1)S(=O)(=O)c1ccc2[nH]c(=O)oc2c1`: 35.5 µM [rising, single point].
For the compound `COc1cc2[nH]c3c(=O)n4c(nc3c2cc1OC)SCCC4`, the AC50 under setting [1] is 25.1 µM [falling, single point].
For the compound `Cc1cccc(C(=O)NNC(=O)c2cccc([N+](=O)[O-])c2)c1`, the AC50 under setting [1] was 10 µM [falling, partial curve].
`CCc1nnc(NC(=O)C2Cc3ccccc3CN2S(=O)(=O)c2c(C)c(C)cc(C)c2C)s1` (stereo unspecified): the AC50 under setting [1] is 6.51 µM [rising, single point].
On the same count and under the same terms, the result for `CCn1c(=O)cc(C(=O)OC)sc1=Nc1ccc(F)c(F)c1` reads 1.84 µM [falling, full curve].
Same read-out and setting: next, `O=C(O)Cc1sc(Nc2ccc(F)cc2)nc1-c1cccs1`: 35.5 µM [falling, single point].
Turning to `CCS(=O)(=O)c1c([N+](=O)[O-])ncn1C`, the AC50 reads like this: under setting [1], 18.4 µM [falling, partial curve, poor fit]; under setting [2], 23.1 µM [rising, partial curve, poor fit].
Regarding `COC(=O)c1sccc1NC(=O)c1ccc(C(C)C)cc1`, the AC50 under setting [1] is 0.251 µM [rising, full curve].
The same measure, in the same setting: the result for `O=C(NC1CCCCC1)c1cc(C2CC2)on1` reads 5.01 µM [falling, partial curve, poor fit].
On to `CCn1c(SCC(=O)Nc2ccc(Cl)cc2)nnc1C1CC1`, for which, under setting [1], the AC50 was 8.2 µM [falling, partial curve, poor fit].
For the compound `CCOc1cc(/C=N/n2c(C)nc3ccccc3c2=O)ccc1O`, the AC50 under setting [1] is 2.51 µM [falling, full curve].
`COc1cc2c(cc1OC)C1O[C@](CCCCN3C(=O)c4ccccc4C3=O)(C2)OC2=C1C(=O)OC1(CCCCC1)C2`: under setting [2], the concentration at half-maximal activity (AC50) was 3.55 µM [rising, partial curve, poor fit].
Take `Cc1cc(C)c(NC(=O)c2cn3c4c(c(N5CCN(C)CC5)c(F)cc4c2=O)OCC3C)c(C)c1` (stereo unspecified): the AC50 under setting [1] is 0.411 µM [falling, full curve, poor fit].
As for `Cc1cc(NC(=O)CSCC(=O)N(c2ccc(F)cc2)C(C(=O)NC2CCCCC2)c2ccc(O)c(O)c2)no1` (stereo unspecified), under setting [1], the AC50 is 5.17 µM [falling, partial curve].
On to `O=C(Nc1cccc(C(F)(F)F)c1)N1CCC(c2nc(-c3ccc(F)cc3)no2)CC1`, for which the AC50 under setting [1] is 25.9 µM [falling, single point].
For `Cc1ccccc1NC(=O)CSc1nc(-c2ccccc2)cn1-c1ccccc1F`, the AC50 under setting [1] is 35.5 µM [falling, single point].
Consider `CCOC(=O)c1sc2nccc(N(C)C)c2c1N=CNOC`, for which the AC50 under setting [1] was 2.91 µM [rising, single point].
In the case of `N=c1c2c3c(sc2nc2n1CCCCC2)CCCCC3`, the AC50 under setting [1] was 14.1 µM [rising, partial curve, poor fit].
Regarding `CCOc1ccc(S(=O)(=O)N2CCN(C(=O)c3ccco3)CC2)cc1`, the AC50 under setting [1] is 4.47 µM [rising, partial curve, poor fit].
In the case of `COc1ccccc1OCc1ccc(C(=O)Nc2ccc(Cl)cn2)o1`, under setting [1], the AC50 is 0.398 µM [falling, full curve, poor fit].
On the same count and under the same terms, next, `Cc1cc(=O)n2[nH]c(-c3ccc(F)cc3)cc2n1`: 10 µM [falling, partial curve].
Regarding `CCOC(=O)c1c(NC(=O)c2nn(CC)cc2Br)sc(C)c1C`, the AC50 under setting [1] is 8.2 µM [falling, partial curve, poor fit].
Still for that read-out and setting: next, `Cc1ccc(Cl)cc1Nc1nc(-c2sc(NC(=O)c3ccccc3)nc2C)cs1`: 0.282 µM [falling, full curve, poor fit].

These data come from PubChem BioAssay AID493014 (National Center for Advancing Translational Sciences (NCATS), 2011).
